Reference: US20090300802A1 (WASHINGTON STATE UNIVERSITY RESEARCH FOUNDATION, published 2009)
Results are given in words; binding and its absence hold for the method and conditions named. Some binding calls cover weakened binding; strength is not graded here.

T1: AtPEPR1 (Arabidopsis thaliana, UniProt Q9SSL9 29-1123, glycosylated (about 180 kD, about 150 kD after PNGase F))
T1 sequence: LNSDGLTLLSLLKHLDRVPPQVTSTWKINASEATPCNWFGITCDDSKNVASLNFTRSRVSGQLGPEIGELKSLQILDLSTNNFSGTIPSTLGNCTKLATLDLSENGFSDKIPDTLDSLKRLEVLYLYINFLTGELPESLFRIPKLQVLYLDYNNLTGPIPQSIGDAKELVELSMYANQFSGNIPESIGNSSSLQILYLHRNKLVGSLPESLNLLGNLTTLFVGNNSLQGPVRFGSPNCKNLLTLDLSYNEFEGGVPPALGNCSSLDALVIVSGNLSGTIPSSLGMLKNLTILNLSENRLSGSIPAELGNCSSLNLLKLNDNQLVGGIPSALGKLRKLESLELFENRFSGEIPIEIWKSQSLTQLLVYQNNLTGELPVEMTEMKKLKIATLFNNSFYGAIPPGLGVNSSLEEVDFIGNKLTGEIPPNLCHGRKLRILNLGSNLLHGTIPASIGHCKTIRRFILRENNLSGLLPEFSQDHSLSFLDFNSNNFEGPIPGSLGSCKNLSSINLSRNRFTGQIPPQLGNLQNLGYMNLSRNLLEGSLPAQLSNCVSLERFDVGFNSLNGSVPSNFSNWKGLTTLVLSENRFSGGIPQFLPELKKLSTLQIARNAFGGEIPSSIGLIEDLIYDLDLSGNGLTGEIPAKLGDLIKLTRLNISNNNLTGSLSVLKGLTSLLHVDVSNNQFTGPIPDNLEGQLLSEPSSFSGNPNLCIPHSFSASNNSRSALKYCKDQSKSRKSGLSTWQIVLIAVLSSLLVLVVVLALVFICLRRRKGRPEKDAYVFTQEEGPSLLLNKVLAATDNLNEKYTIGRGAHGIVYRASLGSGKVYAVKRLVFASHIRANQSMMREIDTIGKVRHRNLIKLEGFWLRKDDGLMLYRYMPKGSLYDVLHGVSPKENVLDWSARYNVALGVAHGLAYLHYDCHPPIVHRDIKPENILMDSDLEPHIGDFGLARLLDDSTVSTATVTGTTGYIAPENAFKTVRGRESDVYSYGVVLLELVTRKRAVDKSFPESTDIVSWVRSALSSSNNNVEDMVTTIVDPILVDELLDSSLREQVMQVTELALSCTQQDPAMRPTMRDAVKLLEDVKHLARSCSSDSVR


target: T1, AtPEPR1; assay: competition with 125I1-Tyr-AtPep1 on Arabidopsis suspension cultured cells

binding | Binder
binds | SLNVMRKGIRKQPVSSGKRGGVN [AtPep2]
binds | EIKARGKNKTKPTPSSGKGGKHN [AtPep4]
binds | DNKAKSKKRDKEKPSSGRPGQTN [AtPep3]
